Measurements reported in PubChem BioAssay AID1259254 (NCATS, 2017).

Purpose: 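Genome-wide screen for genes that prevent DNA re-replication in cancer cells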 (primary screen)
System: human HCT116 colorectal cancer cells
Knock-down reagent: single siRNA against human genes
Timing: 3 days
Measurement: 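Imaged Hoechst DNA stain sorts each cell into a cycle phase by DNA amount; per plate, G2 fraction set to 0% for non-targeting and 100% for GMNN siRNA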
Direction: G2 robust z-score and G2 cells, % of GMNN control: higher = more G2 cells, more excess DNA replication; raw share of cells in G2: higher = larger share of cells with G2 DNA content
Rule for the call: 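An siRNA counts as active if its G2 robust z-score lies at least 5 MADs above the screen median; here such calls match roughly 38% of GMNN control or more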
This is one part, drawn at random, of about 59,000 reagents. In the full data, about 1,550 (2.6%) were called active. 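G2 share is only a proxy for re-replication; each gene was hit by three separate siRNAs, and active genes were retested.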 Raw values vary from plate to plate and are shown uncorrected. Reagents against one gene are numbered here. No sequences are given here. Not given: the amount of reagent.

The first 2 entries as a preview:
gene knocked down	reagent	G2 robust z-score	G2 cells, % of GMNN control	raw share of cells in G2 (%)	activity call
BRAT1 (BRCA1 associated ATM activator 1)	1	-0.821	-2.81	2.56	inactive
BRAT1 (BRCA1 associated ATM activator 1)	2	-0.771	-2.46	2.29	inactive

The list itself, from the first entry:
gene knocked down	reagent	G2 robust z-score	G2 cells, % of GMNN control	raw share of cells in G2 (%)	activity call
BRAT1 (BRCA1 associated ATM activator 1)	1	-0.821	-2.81	2.56	inactive
BRAT1 (BRCA1 associated ATM activator 1)	2	-0.771	-2.46	2.29	inactive
BRAT1 (BRCA1 associated ATM activator 1)	3	-0.603	-1.27	2.79	inactive
METTL15 (methyltransferase 15, mitochondrial 12S rRNA N4-cytidine)	1	0.517	6.6	5.97	inactive
METTL15 (methyltransferase 15, mitochondrial 12S rRNA N4-cytidine)	2	-0.237	1.3	3.4	inactive
METTL15 (methyltransferase 15, mitochondrial 12S rRNA N4-cytidine)	3	-0.186	1.66	3.29	inactive
OR10K1 (olfactory receptor family 10 subfamily K member 1)	1	0.451	6.14	7.34	inactive
OR10K1 (olfactory receptor family 10 subfamily K member 1)	2	-0.798	-2.65	2.85	inactive
OR10K1 (olfactory receptor family 10 subfamily K member 1)	3	0.108	3.73	5	inactive
RPRM (reprimo, TP53 dependent G2 arrest mediator homolog)	1	-0.792	-2.61	3.32	inactive
RPRM (reprimo, TP53 dependent G2 arrest mediator homolog)	2	0.725	8.07	8.31	inactive
RPRM (reprimo, TP53 dependent G2 arrest mediator homolog)	3	0.474	6.3	5.02	inactive
UBTD2 (ubiquitin domain containing 2)	1	-0.852	-3.03	2.8	inactive
UBTD2 (ubiquitin domain containing 2)	2	0.918	9.43	5.96	inactive
UBTD2 (ubiquitin domain containing 2)	3	0.781	8.46	5.61	inactive
RAB42P1 (RAB42, member RAS oncogene family, pseudogene 1)	1	0.0942	3.63	4.57	inactive
RAB42P1 (RAB42, member RAS oncogene family, pseudogene 1)	2	0.0158	3.08	4.02	inactive
RAB42P1 (RAB42, member RAS oncogene family, pseudogene 1)	3	-0.444	-0.157	3.72	inactive
FIGNL2 (fidgetin like 2)	1	1.09	10.7	7.68	inactive
FIGNL2 (fidgetin like 2)	2	-0.698	-1.94	2.75	inactive
FIGNL2 (fidgetin like 2)	3	-0.119	2.13	5.67	inactive
RPS28P4 (ribosomal protein S28 pseudogene 4)	1	6.19	46.5	21.3	active
RPS28P4 (ribosomal protein S28 pseudogene 4)	2	4.47	34.4	16	inactive
RPS28P4 (ribosomal protein S28 pseudogene 4)	3	2.06	17.5	8.6	inactive
ZNF469 (zinc finger protein 469)	1	-0.189	1.64	4.65	inactive
ZNF469 (zinc finger protein 469)	2	1.08	10.6	6.6	inactive
ZNF469 (zinc finger protein 469)	3	2.06	17.5	7.7	inactive
FARP1 (FERM, ARH/RhoGEF and pleckstrin domain protein 1)	1	-1.63	-8.53	3.12	inactive
FARP1 (FERM, ARH/RhoGEF and pleckstrin domain protein 1)	2	-1.14	-5.04	3.51	inactive
FARP1 (FERM, ARH/RhoGEF and pleckstrin domain protein 1)	3	-0.651	-1.61	3.32	inactive
